In publication doi:10.1101/2025.06.10.658803 one finds binding data, which are given here for 1 molecule.

Chains of the proteins cited; added tags and fusions are not shown. Lines headed by an entry give the natural chain unless they say otherwise; changes in a name come on top. A line that says so, or that is headed by a name, gives the form on record, which may keep a tag or linker.
LAMP2B-HA (P13473, form named): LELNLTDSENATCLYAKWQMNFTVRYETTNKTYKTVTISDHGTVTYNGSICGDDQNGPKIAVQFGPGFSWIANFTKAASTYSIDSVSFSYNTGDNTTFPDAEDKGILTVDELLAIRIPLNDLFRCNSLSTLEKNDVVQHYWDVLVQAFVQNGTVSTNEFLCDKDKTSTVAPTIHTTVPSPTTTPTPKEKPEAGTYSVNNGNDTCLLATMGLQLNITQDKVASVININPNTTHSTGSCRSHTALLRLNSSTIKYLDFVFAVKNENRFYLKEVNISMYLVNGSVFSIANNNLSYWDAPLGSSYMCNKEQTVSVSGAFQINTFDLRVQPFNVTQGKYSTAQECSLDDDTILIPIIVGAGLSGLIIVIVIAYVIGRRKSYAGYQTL

The assay has as its target LAMP2B-HA (UniProt P13473). Briefly: co-IP.

These are yes or no findings as the source states them, for the method shown. Binding seen in cells or lysates may run through a third protein. Some entries that bind do so weakly or less than the wild type. Sequences can lack the tags named with a protein.

B1: FLAG-YTHDF3 (protein, UniProt Q7Z739 1-585)
chain: MSATSVDQRPKGQGNKVSVQNGSIHQKDAVNDDDFEPYLSSQTNQSNSYPPMSDPYMPSYYAPSIGFPYSLGEAAWSTAGDQPMPYLTTYGQMSNGEHHYIPDGVFSQPGALGNTPPFLGQHGFNFFPGNADFSTWGTSGSQGQSTQSSAYSSSYGYPPSSLGRAITDGQAGFGNDTLSKVPGISSIEQGMTGLKIGGDLTAAVTKTVGTALSSSGMTSIATNSVPPVSSAAPKPTSWAAIARKPAKPQPKLKPKGNVGIGGSAVPPPPIKHNMNIGTWDEKGSVVKAPPTQPVLPPQTIIQQPQPLIQPPPLVQSQLPQQQPQPPQPQQQQGPQPQAQPHQVQPQQQQLQNRWVAPRNRGAGFNQNNGAGSENFGLGVVPVSASPSSVEVHPVLEKLKAINNYNPKDFDWNLKNGRVFIIKSYSEDDIHRSIKYSIWCSTEHGNKRLDAAYRSLNGKGPLYLLFSVNGSGHFCGVAEMKSVVDYNAYAGVWSQDKWKGKFEVKWIFVKDVPNNQLRHIRLENNDNKPVTNSRDTQEVPLEKAKQVLKIIATFKHTTSIFDDFAHYEKRQEEEEAMRRERNRNKQ
With B1, the binding result is listed as “binds weakly”.
